Measured values: publication PMC7728349, “Exploring the Interaction between the SWI/SNF Chromatin Remodeling Complex and the Zinc Finger Factor CTCF” (International Journal of Molecular Sciences, 2020)
Results are given in words; binding and its absence hold for the method and conditions named. In cells and extracts the contact can be indirect. Some binding calls cover weakened binding; strength is not graded here.

Sequences of proteins named here, by UniProt entry; tags and fusion partners are left off.
UniProt Q12824: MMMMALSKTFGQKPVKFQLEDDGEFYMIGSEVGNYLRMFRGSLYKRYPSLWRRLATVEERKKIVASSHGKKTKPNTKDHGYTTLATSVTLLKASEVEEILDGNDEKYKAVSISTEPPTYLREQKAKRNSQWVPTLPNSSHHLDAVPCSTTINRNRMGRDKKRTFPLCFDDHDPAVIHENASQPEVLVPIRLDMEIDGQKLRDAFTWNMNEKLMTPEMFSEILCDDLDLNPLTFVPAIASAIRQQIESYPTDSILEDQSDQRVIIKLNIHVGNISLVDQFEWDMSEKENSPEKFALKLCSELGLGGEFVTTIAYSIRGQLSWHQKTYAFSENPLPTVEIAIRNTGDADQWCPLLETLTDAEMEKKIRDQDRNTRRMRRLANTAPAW
UniProt Q8TAQ2: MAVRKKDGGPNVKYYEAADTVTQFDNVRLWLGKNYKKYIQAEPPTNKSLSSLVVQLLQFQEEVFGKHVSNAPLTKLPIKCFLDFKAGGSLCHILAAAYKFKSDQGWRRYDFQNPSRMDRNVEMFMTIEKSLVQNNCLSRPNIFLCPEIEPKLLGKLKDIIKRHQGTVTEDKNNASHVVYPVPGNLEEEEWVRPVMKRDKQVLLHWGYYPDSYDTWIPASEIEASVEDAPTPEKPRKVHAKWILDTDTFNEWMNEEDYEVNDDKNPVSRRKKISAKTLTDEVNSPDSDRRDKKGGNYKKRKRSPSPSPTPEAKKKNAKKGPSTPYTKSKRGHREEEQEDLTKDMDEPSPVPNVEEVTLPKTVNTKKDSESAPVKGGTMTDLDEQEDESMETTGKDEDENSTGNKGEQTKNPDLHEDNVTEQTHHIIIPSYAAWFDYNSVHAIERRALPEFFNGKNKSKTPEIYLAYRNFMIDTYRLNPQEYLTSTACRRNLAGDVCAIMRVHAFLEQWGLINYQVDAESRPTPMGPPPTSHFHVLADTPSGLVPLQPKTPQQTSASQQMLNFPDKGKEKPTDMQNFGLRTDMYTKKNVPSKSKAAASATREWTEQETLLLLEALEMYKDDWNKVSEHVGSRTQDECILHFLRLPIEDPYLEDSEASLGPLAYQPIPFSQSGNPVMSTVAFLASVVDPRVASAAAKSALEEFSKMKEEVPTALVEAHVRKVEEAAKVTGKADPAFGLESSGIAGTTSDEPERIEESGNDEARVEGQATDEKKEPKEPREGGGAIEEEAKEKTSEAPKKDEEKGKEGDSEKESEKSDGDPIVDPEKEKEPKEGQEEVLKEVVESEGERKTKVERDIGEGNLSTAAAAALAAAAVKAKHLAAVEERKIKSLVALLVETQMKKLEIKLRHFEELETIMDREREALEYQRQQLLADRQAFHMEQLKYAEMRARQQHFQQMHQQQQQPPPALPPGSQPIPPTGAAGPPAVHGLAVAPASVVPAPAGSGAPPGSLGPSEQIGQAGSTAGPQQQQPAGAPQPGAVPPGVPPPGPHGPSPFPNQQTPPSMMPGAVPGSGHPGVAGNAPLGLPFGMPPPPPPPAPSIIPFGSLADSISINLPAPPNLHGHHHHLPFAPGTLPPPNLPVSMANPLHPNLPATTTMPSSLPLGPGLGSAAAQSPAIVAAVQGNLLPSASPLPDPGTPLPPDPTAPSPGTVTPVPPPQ
UniProt Q9H8M2: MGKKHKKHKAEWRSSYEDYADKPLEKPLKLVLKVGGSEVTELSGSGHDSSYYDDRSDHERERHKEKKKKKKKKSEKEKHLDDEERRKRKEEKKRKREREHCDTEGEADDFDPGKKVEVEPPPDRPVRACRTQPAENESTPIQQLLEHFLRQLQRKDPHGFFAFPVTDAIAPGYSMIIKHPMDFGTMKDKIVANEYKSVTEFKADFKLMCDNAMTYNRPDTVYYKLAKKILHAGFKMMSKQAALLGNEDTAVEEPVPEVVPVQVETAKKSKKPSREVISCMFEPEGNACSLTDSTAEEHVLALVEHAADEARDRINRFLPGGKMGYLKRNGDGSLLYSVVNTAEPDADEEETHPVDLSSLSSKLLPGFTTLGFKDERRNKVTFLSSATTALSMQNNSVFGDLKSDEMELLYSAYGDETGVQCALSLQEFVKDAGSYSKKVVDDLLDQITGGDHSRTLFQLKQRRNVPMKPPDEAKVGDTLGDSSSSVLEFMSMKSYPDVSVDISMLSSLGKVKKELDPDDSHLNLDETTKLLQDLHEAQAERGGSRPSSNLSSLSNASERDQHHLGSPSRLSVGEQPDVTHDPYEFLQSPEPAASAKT

Target: T1, Endogenous CTCF (HeLa) (human (endogenous in HeLa)) (UniProt P49711)
T1 sequence: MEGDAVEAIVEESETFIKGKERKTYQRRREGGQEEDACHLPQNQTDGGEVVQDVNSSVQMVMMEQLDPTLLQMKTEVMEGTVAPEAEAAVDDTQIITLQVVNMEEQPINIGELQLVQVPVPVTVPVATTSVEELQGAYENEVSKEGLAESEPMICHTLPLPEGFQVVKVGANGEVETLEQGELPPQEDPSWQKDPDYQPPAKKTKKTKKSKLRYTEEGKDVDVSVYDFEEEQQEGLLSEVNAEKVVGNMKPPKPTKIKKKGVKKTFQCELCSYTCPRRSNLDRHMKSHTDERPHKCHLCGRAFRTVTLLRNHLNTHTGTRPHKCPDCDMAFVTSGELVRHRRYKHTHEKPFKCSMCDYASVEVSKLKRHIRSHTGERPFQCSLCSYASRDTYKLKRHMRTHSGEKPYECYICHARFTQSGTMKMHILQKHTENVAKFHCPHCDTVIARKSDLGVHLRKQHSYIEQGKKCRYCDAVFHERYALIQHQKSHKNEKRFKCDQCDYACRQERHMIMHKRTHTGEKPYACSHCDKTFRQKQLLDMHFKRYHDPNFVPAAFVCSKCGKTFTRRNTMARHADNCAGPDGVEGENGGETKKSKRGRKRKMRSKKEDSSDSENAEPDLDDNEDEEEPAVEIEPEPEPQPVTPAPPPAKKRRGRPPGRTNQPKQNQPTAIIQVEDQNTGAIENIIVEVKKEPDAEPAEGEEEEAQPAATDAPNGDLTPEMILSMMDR
Assay: co-IP; endogenous CTCF immunoprecipitated with pAb anti-CTCF from 500 µg HeLa nuclear cell fractions, Dynabeads Protein A and Protein G; immunoblot; rabbit IgG IP as control

Row | binding | Substance
1 | binds | BAF47 (HeLa) (from UniProt Q12824 1-385)
2 | binds | BAF170 (HeLa) (from UniProt Q8TAQ2 1-1214)
3 | binds | BRD9 (HeLa) (from UniProt Q9H8M2 1-597)
